Settings in all cases: stereoisomer not certain
One assay relates to T1, O51G1.
T1 sequence (whole entry): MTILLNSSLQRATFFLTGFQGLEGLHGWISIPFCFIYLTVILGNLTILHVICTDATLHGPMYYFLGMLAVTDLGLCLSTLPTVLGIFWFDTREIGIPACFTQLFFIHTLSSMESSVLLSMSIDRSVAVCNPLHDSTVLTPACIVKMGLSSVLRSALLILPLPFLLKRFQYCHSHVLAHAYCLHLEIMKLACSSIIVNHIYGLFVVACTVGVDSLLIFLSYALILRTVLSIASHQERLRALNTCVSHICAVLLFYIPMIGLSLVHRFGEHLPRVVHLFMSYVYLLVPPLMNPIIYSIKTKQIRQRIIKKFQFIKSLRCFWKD
In outline: (§1)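 Each entry records the cell line, G-protein, co-transfected protein and tags used. Methods varied with the source, often transient luciferase assays in mammalian cell lines. A receptor–molecule pair is called responsive (active) if the original authors judged its signal statistically different from baseline and non-responsive (inactive) otherwise.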

Chains of the proteins cited; added tags and fusions are not shown. Chains listed by the source or under a name are the forms on record and can include a tag or linker.
O51V1, as listed by the source: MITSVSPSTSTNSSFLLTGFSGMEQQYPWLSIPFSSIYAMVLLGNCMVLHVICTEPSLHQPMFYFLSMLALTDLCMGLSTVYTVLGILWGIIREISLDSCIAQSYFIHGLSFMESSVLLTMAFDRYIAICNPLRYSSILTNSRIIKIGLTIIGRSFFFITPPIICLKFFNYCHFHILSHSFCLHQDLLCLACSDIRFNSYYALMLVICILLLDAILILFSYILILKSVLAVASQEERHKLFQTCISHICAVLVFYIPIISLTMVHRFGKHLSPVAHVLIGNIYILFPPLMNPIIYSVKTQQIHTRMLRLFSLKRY
O51L1, as listed by the source: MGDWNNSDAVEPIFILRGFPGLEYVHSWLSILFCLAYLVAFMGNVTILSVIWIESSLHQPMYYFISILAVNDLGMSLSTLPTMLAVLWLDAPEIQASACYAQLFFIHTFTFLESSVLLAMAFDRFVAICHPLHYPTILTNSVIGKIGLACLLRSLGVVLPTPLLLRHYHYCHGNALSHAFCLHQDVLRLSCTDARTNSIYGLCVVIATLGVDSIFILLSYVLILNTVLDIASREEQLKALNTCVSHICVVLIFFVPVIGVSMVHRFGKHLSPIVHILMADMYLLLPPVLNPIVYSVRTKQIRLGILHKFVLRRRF
O52E2, as listed by the source: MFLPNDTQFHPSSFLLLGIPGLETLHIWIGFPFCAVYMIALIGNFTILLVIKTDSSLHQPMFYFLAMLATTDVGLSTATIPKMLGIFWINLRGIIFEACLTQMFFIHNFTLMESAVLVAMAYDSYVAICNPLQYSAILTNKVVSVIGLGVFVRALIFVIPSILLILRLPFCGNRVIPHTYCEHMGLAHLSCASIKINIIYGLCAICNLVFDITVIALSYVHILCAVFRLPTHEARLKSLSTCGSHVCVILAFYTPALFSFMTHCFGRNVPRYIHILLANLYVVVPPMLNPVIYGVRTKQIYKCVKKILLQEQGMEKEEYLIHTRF
O52E8, as listed by the source: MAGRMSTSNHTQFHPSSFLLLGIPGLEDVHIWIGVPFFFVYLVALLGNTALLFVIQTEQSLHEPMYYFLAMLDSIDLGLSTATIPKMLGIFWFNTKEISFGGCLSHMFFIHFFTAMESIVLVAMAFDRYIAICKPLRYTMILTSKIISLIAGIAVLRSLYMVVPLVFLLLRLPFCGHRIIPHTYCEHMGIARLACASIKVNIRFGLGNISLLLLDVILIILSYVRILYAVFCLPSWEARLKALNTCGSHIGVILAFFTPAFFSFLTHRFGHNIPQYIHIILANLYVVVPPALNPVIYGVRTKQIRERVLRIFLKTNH
O52E5, as listed by the source: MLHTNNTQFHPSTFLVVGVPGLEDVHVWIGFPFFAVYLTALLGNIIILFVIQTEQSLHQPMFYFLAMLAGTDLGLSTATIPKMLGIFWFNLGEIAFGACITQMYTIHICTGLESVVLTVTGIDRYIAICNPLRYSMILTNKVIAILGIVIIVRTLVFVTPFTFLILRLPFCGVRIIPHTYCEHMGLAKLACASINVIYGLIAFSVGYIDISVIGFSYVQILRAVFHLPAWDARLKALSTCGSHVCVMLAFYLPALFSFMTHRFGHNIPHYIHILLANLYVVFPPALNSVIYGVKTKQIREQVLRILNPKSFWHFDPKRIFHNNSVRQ
O52E1, as listed by the source: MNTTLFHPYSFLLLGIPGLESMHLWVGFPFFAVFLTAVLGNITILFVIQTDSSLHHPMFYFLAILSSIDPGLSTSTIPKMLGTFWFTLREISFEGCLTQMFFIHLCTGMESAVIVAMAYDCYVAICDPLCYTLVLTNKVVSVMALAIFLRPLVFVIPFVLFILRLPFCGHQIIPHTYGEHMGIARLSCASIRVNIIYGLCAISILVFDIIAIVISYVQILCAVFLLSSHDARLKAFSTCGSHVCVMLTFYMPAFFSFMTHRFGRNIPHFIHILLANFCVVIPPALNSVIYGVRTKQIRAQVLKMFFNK
O52E4, as listed by the source: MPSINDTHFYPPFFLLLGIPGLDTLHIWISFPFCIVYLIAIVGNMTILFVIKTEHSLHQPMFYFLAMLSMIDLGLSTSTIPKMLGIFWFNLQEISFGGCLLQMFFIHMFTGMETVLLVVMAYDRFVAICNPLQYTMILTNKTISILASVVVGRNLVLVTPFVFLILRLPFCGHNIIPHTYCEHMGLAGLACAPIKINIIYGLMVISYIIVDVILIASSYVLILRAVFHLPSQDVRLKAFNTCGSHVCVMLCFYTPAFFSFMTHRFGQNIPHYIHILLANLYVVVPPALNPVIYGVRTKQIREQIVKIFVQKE

The subject of the next assay is T2, O51G2.
T2 sequence (whole entry): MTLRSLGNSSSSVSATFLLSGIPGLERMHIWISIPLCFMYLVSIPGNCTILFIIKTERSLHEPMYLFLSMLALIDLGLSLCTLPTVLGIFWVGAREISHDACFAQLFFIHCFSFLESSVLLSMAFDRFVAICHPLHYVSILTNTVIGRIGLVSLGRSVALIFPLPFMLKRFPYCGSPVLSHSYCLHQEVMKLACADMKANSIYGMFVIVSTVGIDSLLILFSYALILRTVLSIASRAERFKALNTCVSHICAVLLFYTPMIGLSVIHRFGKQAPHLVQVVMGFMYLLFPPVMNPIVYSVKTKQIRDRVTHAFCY
The essentials: as §1

In a further assay the test system is T3, O51J1.
T3 sequence (whole entry): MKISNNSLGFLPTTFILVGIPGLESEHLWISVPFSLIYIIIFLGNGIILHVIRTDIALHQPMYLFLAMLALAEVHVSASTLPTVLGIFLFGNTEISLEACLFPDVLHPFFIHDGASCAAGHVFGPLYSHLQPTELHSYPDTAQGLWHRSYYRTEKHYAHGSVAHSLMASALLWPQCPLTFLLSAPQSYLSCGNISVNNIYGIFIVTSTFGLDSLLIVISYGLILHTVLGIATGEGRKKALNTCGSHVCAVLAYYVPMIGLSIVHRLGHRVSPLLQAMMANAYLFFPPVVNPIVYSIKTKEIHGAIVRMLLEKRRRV
In outline:
as §1

Assay [1] concerns T4, O51L1.
T4 sequence (whole entry): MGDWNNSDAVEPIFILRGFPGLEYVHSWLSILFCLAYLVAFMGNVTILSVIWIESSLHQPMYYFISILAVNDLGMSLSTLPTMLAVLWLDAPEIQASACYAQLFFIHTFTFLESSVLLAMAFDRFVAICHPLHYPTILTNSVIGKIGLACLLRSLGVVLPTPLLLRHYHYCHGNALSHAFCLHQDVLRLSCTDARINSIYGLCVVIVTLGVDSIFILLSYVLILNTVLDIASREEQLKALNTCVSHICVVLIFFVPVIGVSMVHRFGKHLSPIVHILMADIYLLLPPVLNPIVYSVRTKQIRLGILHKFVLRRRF
In outline:
as §1

The subject of assay [2] is T5, O51L1.
T5 sequence (whole entry): T4 sequence (whole entry) with I196T, V207A, I281M
In outline:
as §1
The source holds these as a separate data set.

In a further assay the test system is T6, O51M1.
T6 sequence (whole entry): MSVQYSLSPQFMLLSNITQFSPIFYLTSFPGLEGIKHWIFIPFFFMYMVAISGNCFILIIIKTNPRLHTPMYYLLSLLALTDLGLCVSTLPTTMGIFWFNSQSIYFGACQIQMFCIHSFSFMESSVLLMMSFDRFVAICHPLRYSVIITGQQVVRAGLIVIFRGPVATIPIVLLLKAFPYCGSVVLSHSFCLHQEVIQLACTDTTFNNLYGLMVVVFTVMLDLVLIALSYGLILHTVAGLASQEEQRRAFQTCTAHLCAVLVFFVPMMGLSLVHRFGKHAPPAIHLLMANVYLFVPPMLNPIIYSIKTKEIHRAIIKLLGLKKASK
In outline:
as §1

The subject of the next assay is T7, O51Q1.
T7 sequence (whole entry): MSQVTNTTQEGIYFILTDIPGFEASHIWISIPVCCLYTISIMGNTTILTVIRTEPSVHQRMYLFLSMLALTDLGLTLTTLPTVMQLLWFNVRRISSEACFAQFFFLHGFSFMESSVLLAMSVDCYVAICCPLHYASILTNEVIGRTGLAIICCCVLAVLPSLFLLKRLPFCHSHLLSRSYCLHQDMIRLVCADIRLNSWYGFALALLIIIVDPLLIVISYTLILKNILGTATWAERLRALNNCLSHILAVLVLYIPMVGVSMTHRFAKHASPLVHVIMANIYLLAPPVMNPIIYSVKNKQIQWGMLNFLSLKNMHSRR
The essentials: as §1

The next assay relates to T8, O51T1.
T8 sequence (whole entry): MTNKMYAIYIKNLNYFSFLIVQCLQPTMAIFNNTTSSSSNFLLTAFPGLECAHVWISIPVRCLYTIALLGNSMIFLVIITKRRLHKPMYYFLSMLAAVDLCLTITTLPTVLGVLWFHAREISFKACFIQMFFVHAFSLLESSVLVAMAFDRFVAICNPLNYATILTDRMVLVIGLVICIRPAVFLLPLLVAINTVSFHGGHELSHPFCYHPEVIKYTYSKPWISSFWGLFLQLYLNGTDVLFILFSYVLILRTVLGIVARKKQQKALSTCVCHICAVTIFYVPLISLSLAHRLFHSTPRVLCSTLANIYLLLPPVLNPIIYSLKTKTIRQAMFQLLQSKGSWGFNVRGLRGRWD
The essentials:
as §1

Assay [3] deals with T9, O51V1.
T9 sequence (whole entry): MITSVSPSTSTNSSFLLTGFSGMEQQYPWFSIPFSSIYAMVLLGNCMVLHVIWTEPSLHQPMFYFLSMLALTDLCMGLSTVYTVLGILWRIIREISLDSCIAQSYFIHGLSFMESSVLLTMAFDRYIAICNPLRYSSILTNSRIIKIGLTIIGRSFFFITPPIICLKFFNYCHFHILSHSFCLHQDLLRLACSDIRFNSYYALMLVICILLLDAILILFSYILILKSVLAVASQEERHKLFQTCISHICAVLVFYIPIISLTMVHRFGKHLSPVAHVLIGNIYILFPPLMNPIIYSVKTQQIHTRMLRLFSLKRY
In outline: as §1

Assay [4] has as its system T10, O51V1.
T10 sequence (whole entry): T9 sequence (whole entry) with F30L, W53C, R90G, R189C
In outline:
as §1
This is another data set of the same source.

The subject of a further assay is T11, O52A1.
T11 sequence (whole entry): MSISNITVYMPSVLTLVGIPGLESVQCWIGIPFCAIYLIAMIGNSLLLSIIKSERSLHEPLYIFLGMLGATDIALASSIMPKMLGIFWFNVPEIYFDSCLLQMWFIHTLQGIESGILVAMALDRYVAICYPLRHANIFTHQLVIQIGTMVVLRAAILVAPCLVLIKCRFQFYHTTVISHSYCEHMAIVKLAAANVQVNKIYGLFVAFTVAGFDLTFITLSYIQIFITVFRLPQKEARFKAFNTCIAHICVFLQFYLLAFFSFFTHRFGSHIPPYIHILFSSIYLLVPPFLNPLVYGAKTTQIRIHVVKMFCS
The essentials:
as §1

For another assay, the system named is T12, O52B2.
T12 sequence (whole entry): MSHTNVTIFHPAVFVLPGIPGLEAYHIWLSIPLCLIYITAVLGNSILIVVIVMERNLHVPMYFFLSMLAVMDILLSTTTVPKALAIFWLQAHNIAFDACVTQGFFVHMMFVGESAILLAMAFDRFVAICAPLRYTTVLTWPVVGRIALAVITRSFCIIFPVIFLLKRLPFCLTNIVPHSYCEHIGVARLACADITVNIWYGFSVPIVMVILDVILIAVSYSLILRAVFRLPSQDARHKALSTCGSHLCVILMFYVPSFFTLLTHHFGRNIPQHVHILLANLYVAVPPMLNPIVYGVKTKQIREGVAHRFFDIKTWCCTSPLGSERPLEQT
The essentials: as §1

The next assay deals with T13, O52B6.
T13 sequence (whole entry): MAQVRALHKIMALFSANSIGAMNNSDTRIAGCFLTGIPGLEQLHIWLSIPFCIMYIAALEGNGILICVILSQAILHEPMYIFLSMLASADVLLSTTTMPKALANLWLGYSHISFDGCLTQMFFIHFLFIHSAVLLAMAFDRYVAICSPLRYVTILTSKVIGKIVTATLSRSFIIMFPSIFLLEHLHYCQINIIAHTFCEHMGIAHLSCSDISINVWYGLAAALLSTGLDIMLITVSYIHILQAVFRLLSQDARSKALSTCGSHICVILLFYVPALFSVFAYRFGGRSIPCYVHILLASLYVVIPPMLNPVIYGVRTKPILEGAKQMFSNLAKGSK
The essentials:
as §1

The test system of a further assay is O52E1. In outline:
as §1

Another assay concerns O52E2. In outline: as §1
Another assay has as its system O52E4. The essentials:
as §1

Another assay concerns O52E5. The essentials: as §1
A further assay deals with O52E8. The essentials: as §1
A further assay has as its system T14, O52I2.
T14 sequence (whole entry): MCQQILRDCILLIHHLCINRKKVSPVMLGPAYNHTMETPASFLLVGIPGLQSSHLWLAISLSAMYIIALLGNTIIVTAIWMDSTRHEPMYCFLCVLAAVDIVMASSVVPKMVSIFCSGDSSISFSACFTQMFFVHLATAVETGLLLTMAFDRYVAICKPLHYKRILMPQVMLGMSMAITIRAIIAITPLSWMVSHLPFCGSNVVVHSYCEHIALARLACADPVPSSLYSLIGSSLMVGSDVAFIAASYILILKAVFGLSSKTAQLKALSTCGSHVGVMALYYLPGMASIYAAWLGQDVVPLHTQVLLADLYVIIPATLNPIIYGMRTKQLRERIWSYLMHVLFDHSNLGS
The essentials: as §1

Positions count from the first letter of the chain named. This is a selection; strong and weak results do not stand in their true shares. Calls are pooled over several reports, among them a noisy single-well screen. The list shows a part of the results.

`CC(=O)OC1CC2CCC1(C)C2(C)C` (stereo unspecified): the “odorant receptor agonist call” value in the assay on O51G1, with O51G2, in the assay on O51J1, with O51L1 [1], in the assay with O51L1 [2] and with O51M1 was “inactive” throughout. The “odorant receptor agonist call” value in the assay on O51Q1, in the assay with O51T1, in the assay with O51V1 [3], in the assay with O51V1 [4], in the assay on O52A1 and in the assay on O52B2 was “inactive” each time. Also, the “odorant receptor agonist call” value with O52B6, in the assay with O52E1, in the assay with O52E2, in the assay on O52E4, in the assay on O52E5 and in the assay on O52E8 was “inactive” each time. In addition, the “odorant receptor agonist call” value in the assay with O52I2 is “inactive”.

Regarding `CC(C)=CCCC(C)=CC=O`, the “odorant receptor agonist call” value in the assay on O51G1, with O51G2, in the assay on O51J1, in the assay with O51L1 [1], in the assay with O51L1 [2] and in the assay with O51Q1 was “inactive” in each case. Further, the “odorant receptor agonist call” value in the assay with O51T1, in the assay on O51V1 [3], with O51V1 [4], in the assay on O52A1, in the assay on O52B2 and with O52B6 was “inactive” throughout. Besides, the “odorant receptor agonist call” value in the assay with O52E1, in the assay on O52E2, with O52E4, in the assay on O52E5, with O52E8 and in the assay on O52I2 was “inactive” throughout. The “odorant receptor agonist call” value in the assay on O51M1 is “active”.

On to `CC(C)(C)c1ccc(CCC=O)cc1`, for which the “odorant receptor agonist call” value in the assay on O51G1, in the assay with O51G2, with O51J1, with O51L1 [1], with O51L1 [2] and with O51M1 was “inactive” throughout. The “odorant receptor agonist call” value in the assay with O51Q1, in the assay on O51T1, in the assay on O51V1 [3], in the assay on O52A1, in the assay with O52B2 and in the assay on O52B6 was “inactive” throughout. Moreover, the “odorant receptor agonist call” value in the assay on O52E1, with O52E2, in the assay with O52E4, with O52E5, in the assay on O52E8 and in the assay with O52I2 was “inactive” in each case. Besides, the “odorant receptor agonist call” value in the assay with O51V1 [4] is “active”.

`CCCCCCCCCCC=O`: the “odorant receptor agonist call” value in the assay with O51G1, with O51G2, in the assay with O51J1, in the assay with O51L1 [1], in the assay with O51L1 [2] and with O51M1 was “inactive” each time. Moreover, the “odorant receptor agonist call” value with O51Q1, with O51T1, with O51V1 [3], with O52A1, with O52B2 and in the assay on O52B6 was “inactive” in each case. The “odorant receptor agonist call” value in the assay with O52E1, in the assay with O52E2, in the assay on O52E4, in the assay with O52E5, in the assay with O52E8 and in the assay with O52I2 was “inactive” each time. Besides, the “odorant receptor agonist call” value in the assay on O51V1 [4] was “active”.

Values taken from the M2OR odorant receptor database.
